Test [1] concerns the target T1, Disheveled binding antagonist of β-catenin 1 (DACT1) (human (endogenous in iPSC-CMs)) (UniProt Q9NYF0).
T1 sequence: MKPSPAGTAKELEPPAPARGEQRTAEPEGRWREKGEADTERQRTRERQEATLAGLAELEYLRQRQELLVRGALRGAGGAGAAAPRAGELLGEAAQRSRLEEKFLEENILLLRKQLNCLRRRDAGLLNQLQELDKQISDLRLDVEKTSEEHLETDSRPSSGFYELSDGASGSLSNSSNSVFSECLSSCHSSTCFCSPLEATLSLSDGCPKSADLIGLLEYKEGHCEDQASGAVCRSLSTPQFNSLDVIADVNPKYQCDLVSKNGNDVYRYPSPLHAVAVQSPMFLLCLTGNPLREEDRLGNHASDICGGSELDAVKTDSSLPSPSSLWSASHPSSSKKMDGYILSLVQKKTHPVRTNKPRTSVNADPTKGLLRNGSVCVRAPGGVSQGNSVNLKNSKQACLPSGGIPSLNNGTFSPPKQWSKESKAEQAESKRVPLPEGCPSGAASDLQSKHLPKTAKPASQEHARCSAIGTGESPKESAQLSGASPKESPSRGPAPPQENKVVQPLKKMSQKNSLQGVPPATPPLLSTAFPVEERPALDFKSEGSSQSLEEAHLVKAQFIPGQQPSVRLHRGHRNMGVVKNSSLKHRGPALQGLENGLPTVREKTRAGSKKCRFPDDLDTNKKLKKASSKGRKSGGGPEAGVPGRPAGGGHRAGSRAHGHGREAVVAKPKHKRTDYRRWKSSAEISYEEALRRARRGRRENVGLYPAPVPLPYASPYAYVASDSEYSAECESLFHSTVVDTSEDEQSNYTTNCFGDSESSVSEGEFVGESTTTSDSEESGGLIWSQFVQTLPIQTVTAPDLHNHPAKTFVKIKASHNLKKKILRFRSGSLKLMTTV
Put plainly: co-IP; iPSC-CM lysate (500 μL, 1 μg/μL) with 5 μg rabbit anti-DACT1 antibody overnight at 4°C, protein A/G agarose beads 2 h at 4°C; blots with anti-β-catenin and anti-connexin 43; nonspecific IgG as control.

Sequences of proteins named here, by UniProt entry; tags and fusion partners are left off.
UniProt P17302: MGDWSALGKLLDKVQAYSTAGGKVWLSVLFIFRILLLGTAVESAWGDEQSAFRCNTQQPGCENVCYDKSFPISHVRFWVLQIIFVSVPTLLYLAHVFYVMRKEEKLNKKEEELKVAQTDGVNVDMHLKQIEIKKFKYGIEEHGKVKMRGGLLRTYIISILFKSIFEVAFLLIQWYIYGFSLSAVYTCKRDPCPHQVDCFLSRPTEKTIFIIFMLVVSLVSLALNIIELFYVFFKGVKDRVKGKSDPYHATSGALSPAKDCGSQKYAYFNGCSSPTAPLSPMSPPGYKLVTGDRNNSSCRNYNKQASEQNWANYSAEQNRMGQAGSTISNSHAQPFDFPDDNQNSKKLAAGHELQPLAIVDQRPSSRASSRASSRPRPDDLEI

In test [2] the target is T2, Disheveled binding antagonist of β-catenin 1 (DACT1) (human (endogenous in iPSC-CMs)), Q9NYF0.
T2 chain: T1 sequence
Described as above. The note with it: remark: other sources report otherwise.

No constants are given. Whether binding was seen depends on the method and setting. Binding seen in cells or lysates may run through a third protein. Some entries that bind do so weakly or less than the wild type. Where a sequence is shown, tags or fusion partners need not be part of it.

Consider connexin 43 (from UniProt P17302 1-382), for which the binding entry in test [1] is reported as “binds”.

B1: β-catenin, P35222 1-781 (protein)
chain: MATQADLMELDMAMEPDRKAAVSHWQQQSYLDSGIHSGATTTAPSLSGKGNPEEEDVDTSQVLYEWEQGFSQSFTQEQVADIDGQYAMTRAQRVRAAMFPETLDEGMQIPSTQFDAAHPTNVQRLAEPSQMLKHAVVNLINYQDDAELATRAIPELTKLLNDEDQVVVNKAAVMVHQLSKKEASRHAIMRSPQMVSAIVRTMQNTNDVETARCTAGTLHNLSHHREGLLAIFKSGGIPALVKMLGSPVDSVLFYAITTLHNLLLHQEGAKMAVRLAGGLQKMVALLNKTNVKFLAITTDCLQILAYGNQESKLIILASGGPQALVNIMRTYTYEKLLWTTSRVLKVLSVCSSNKPAIVEAGGMQALGLHLTDPSQRLVQNCLWTLRNLSDAATKQEGMEGLLGTLVQLLGSDDINVVTCAAGILSNLTCNNYKNKMMVCQVGGIEALVRTVLRAGDREDITEPAICALRHLTSRHQEAEMAQNAVRLHYGLPVVVKLLHPPSHWPLIKATVGLIRNLALCPANHAPLREQGAIPRLVQLLVRAHQDTQRRTSMGGTQQQFVEGVRMEEIVEGCTGALHILARDVHNRIVIRGLNTIPLFVQLLYSPIENIQRVAAGVLCELAQDKEAAEAIEAEGATAPLTELLHSRNEGVATYAAAVLFRMSEDKPQDYKKRLSVELTSSLFRTEPMAWNETADLGLDIGAQGEPLGYRQDDPSYRSFHSGGYGQDALGMDPMMEHEMGGHHPGADYPVDGLPDLGHAQDLMDGLPPGDSNQLAWFDTDL
Consider B1, for which, in test [2], the binding result was “binds”.

The values are drawn from paper PMC9275970.
